For assay [1], the target named is HROB-FLAG (wild type HROB, homologous recombination factor with OB-fold) (human) (UniProt Q8N3J3). The assay is described as follows: mass photometry; protein alone in solution, no DNA; 50-200 nM final protein in 50 mM Tris-HCl pH 7.5, 100 mM NaCl; oligomeric state of MCM8-9 unchanged with ATP-γ-S; both purified.
The target of assay [2] is T1, FLAG-tagged MCM8 (human), Q9UJA3.
T1 chain: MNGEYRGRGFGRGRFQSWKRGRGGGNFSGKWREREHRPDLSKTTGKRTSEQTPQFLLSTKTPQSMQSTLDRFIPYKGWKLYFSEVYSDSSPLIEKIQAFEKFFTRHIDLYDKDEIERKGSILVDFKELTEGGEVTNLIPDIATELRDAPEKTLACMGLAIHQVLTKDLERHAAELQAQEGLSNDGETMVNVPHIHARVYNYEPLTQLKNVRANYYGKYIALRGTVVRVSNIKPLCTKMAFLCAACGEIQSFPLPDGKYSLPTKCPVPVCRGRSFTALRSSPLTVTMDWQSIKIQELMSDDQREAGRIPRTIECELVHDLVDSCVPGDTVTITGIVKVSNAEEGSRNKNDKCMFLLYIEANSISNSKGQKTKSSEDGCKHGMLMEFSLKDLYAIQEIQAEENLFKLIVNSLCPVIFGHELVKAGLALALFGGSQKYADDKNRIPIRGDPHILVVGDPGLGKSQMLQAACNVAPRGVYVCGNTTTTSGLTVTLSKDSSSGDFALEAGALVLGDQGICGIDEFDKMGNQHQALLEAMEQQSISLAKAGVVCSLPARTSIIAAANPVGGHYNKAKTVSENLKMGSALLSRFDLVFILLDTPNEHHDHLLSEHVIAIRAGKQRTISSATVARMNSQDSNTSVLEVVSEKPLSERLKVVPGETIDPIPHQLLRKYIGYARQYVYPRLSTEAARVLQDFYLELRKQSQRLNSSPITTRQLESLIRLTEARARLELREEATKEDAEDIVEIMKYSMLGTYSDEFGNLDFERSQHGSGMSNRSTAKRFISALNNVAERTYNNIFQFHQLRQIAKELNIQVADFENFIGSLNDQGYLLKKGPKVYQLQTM
The description is as above. The note with it: remark: other sources report otherwise.

These are yes or no findings as the source states them, for the method shown. Tags and fused reporters may be left off the sequences shown.

B1: HROB-FLAG (wild type HROB, homologous recombination factor with OB-fold) (protein, UniProt Q8N3J3-4 1-646)
chain: MACSLQKLFAVEEEFEDEDFLSAVEDAENRFTGSLPVNAGRLRPVSSRPQETVQAQSSRLLLLHPTAPSEALGLPDLDLCLPASSTPSADSRPSCIGAAPLRPVSTSSSWIGNQRRVTVTEVLREPARPQSSALHPLLTFESQQQQVGGFEGPEQDEFDKVLASMELEEPGMELECGVSSEAIPILPAQQREGSVLAKKARVVDLSGSCQKGPVPAIHKAGIMSAQDESLDPVIQCRTPRPPLRPGAVGHLPVPTALTVPTQQLHWEVCPQRSPVQALQPLQAARGTIQSSPQNRFPCQPFQSPSSWLSGKAHLPRPRTPNSSCSTPSRTSSGLFPRIPLQPQAPVSSIGSPVGTPKGPQGALQTPIVTNHLVQLVTAASRTPQQPTHPSTRAKTRRFPGPAGILPHQQSGRSLEDIMVSAPQTPTHGALAKFQTEIVASSQASVEEDFGRGPWLTMKSTLGLDERDPSCFLCTYSIVMVLRKAALKQLPRNKVPNMAVMIKSLTRSTMDASVVFKDPTGEMQGTVHRLLLETCQNELKPGSVLLLKQIGVFSPSLRNHYLNVTPNNLVHIYSPDSGDGSFLKPSQPFPKDSGSFQHDVAAKPEEGFRTAQNLEAEASPEEELPEADDLDGLLSELPEDFFCGTSS
For B1, the binding result in assay [1] was “no binding”.

B2: FLAG-tagged MCM8, Q9UJA3 1-840 (protein)
chain: T1 chain
For the molecule B2, the binding result in assay [2] is reported as “no binding”.

These data come from publication PMC11055865.
